Out of some 390,000 compounds screened, about 4,000 (1%) were called active. The shares of active, inactive and inconclusive entries below differ from those in the screen. Calls come from the whole dose curve; as a rule, active = well fitted inhibition curve with a large enough effect; inconclusive = small, poorly fitted or top-dose-only effect, or another doubt; inactive = no such curve, though single readings can be large or run the other way. Potencies beside an inconclusive call are fits to weak or partial responses and may not hold up.
molecular target: DNA polymerase iota (Homo sapiens) (UniProt Q9UNA4); assay: qHTS for Inhibitors of Polymerase Iota; conditions: Pol iota fluorescent replication assay, 10 min; series mostly up to 115 µM; activity, negative = inhibition: at the top concentration
How it was run: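 Fluorescent replication assay read twice, at 0 min and 10 min after adding 50 nM (final) substrate. Enzyme (10 nM) and compounds were first incubated 15 min at room temperature; enzyme-free buffer wells were negative controls.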
Potency is the fitted concentration of half-maximal effect.

By UniProt entry, the sequences of proteins in these tests, tags left out. Where a name states a change or a piece, a line headed by the entry shows the natural chain unless it says otherwise.
UniProt Q9UNA4: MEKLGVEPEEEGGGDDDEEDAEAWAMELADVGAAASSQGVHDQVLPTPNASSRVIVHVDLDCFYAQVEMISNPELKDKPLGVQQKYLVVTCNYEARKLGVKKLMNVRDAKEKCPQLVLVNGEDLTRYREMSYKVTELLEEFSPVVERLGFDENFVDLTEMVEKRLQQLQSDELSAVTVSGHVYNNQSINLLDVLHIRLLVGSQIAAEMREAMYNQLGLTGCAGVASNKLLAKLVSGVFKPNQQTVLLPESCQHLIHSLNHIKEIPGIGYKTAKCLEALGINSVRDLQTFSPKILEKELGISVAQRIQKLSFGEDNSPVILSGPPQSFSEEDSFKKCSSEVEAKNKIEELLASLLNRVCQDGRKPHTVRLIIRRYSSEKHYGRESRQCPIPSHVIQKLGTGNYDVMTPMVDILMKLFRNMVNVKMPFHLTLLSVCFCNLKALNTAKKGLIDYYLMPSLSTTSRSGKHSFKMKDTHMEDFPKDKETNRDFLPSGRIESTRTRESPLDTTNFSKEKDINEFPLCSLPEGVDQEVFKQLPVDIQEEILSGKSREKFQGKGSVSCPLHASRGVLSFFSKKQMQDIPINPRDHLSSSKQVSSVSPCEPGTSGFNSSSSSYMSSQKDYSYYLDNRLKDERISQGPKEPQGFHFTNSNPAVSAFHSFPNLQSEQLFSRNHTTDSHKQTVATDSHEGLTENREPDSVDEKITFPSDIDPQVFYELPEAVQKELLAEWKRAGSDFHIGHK

Compound	activity, negative = inhibition	Potency
CC/C(C)=N/Nc1nc2c(c(=O)[nH]c(=O)n2C)n1CCc1ccccc1	inactive: 58.8%	
Cn1c(=O)c2[nH]c(NN=Cc3ccc(Br)cc3)nc2n(C)c1=O		inconclusive: 14.1 µM [inhibitor, full curve, poor fit]
Cc1cccc(N2CN=c3s/c(=C\c4ccccn4)c(=O)n3C2)c1	inactive: 155%	
Cc1ccc(-c2nnc3c4ccccc4c(-c4ccccc4)nn23)cc1		inconclusive: 89.1 µM [inhibitor, single point]
Cc1ccc(NCc2cc3cc4c(cc3n(CC(=O)Nc3ccc(C)cc3)c2=O)OCCO4)cc1		inconclusive: 79.4 µM [inhibitor, partial curve, poor fit]
Cc1ccnc(NC(=O)c2cc([N+](=O)[O-])cc([N+](=O)[O-])c2)c1		inconclusive: 39.8 µM [inhibitor, single point]
O=C(O)c1cccc(-n2cccc2/C=C\[N+](=O)[O-])c1		inconclusive: 3.98 µM [inhibitor, full curve, poor fit]
CCC(C(=O)O)N1C(=O)/C(=C/C(C)=C/c2ccccc2)SC1=S (stereo not drawn)		inconclusive: 22.4 µM [inhibitor, single point]
Cc1ccc2nsnc2c1S(=O)(=O)Nc1cccc2nsnc12		inconclusive: 39.8 µM [inhibitor, single point]
Cc1ccc(S(=O)(=O)Nc2ccc(-c3ccc(N4CCCCCC4)nn3)cc2)c(C)c1	inactive: 1.87%	
Cc1cc(C2=NNC(=NCCc3ccccc3)SC2)c(C)n1-c1c(C)n(C)n(-c2ccccc2)c1=O		inconclusive: 39.8 µM [inhibitor, partial curve, poor fit]
COCC(=O)Nc1ccc([N+](=O)[O-])cc1OC	inactive: 27.1%	
O=S(=O)(c1ccccc1)c1nc(-c2ccco2)oc1Nc1ccccc1		inconclusive: 112 µM [inhibitor, single point]
COc1cc(NC(=O)CCS(=O)(=O)c2ccc3c(c2)oc(=O)n3C)cc(OC)c1		inconclusive: 89.1 µM [inhibitor, single point]
S=c1[nH]nc(-c2ccco2)n1/N=C/C=C/c1ccccc1	inactive: 8.36%	
Cc1c(C(=O)N(C)C2CC(C)(C)NC(C)(C)C2)oc2c(F)cccc12	inactive: 50.7%	
CCCOc1ccc(C2C(C(=O)/C=C/c3ccco3)=C(O)C(=O)N2CCN2CCOCC2)cc1OC (stereo not drawn)		inconclusive: 15.8 µM [inhibitor, partial curve, poor fit]
CC(=O)Nc1ccc(-c2ccc(NC(C)=O)c(O)c2)cc1O		inconclusive: 22.4 µM [inhibitor, full curve, poor fit]
COc1cc(Cl)c(NC(=O)c2cc3ccccn3n2)c(OC)c1		inconclusive: 79.4 µM [inhibitor, single point]
Cc1cccc(NC(=O)C2CCCN2S(=O)(=O)c2ccc3nc(-c4ccccc4)[nH]c3c2)c1 (stereo not drawn)		inconclusive: 100 µM [inhibitor, single point]
O=C(CCN1CCN(c2ccccc2F)CC1)c1ccc(Br)cc1		inconclusive: 20 µM [inhibitor, full curve, poor fit]

Compound	activity, negative = inhibition	Potency
CC1CCc2c(sc(N)c2C(N)=O)C1 (stereo not drawn)		inconclusive: 10 µM [inhibitor, full curve, poor fit]
Cc1ccc(NC(=O)CN(C)C(=O)c2cccc(S(=O)(=O)NCc3ccco3)c2)cc1		active: 56.2 µM
Cc1ccc(NC(=O)CN2C(=O)c3cccnc3Oc3ccc(Cl)cc32)cc1	inactive: 30.3%	
CCCNC(=O)C1CCN(S(=O)(=O)c2ccc3[nH]c(=O)ccc3c2)CC1	inactive: -4.4%	
CCCCc1nnc(NC(=O)C2CCCO2)s1 (stereo not drawn)		inconclusive: 28.2 µM [inhibitor, partial curve, poor fit]
COc1ccc(Cn2ccnc2SCC(=O)Nc2nc3ccccc3s2)cc1	inactive: -12.9%	
O=C(CBr)Nc1c2c(nn1-c1ccccc1)CSC2		inconclusive: 17.8 µM [inhibitor, full curve, poor fit]
O=C(NCc1ccc2c(c1)CCN2C(=O)c1ccccc1)Nc1cccc(C(F)(F)F)c1	inactive: 6.84%	
COc1ccc(NC(=O)c2cc3c(s2)-c2c(C)cccc2OC3)cc1Cl	inactive: -1.72%	
O=[N+]([O-])c1cc(-c2ncccn2)c([N+](=O)[O-])s1		inconclusive: 12.6 µM [inhibitor, partial curve, poor fit]
Cc1ccn2c(Nc3ccc4c(c3)OCCO4)c(-c3ccc(C)o3)nc2c1	inactive: 7.28%	
N#CCC(=O)Nc1ccc(C(=O)OCC(=O)NC2CCCc3ccccc32)cc1 (stereo not drawn)		inconclusive: 70.8 µM [inhibitor, partial curve]
Cc1ccccc1-c1nc(CN2CCC(C(=O)NCc3ccc(F)cc3)CC2)c(C)o1	inactive: 13.4%	
COc1ccc(NC(=O)C23CCC(C)(C(=O)O2)C3(C)C)cc1 (stereo not drawn)		inconclusive: 89.1 µM [inhibitor, single point]
Oc1ccc(/C=N/Nc2ccnc3cc(Cl)ccc23)c(O)c1O		inconclusive: 12.6 µM [inhibitor, full curve, poor fit]
O=C(NC1CC1)C1CCN(c2ccc(S(=O)(=O)N3CCOCC3)cc2)CC1		inconclusive: 39.8 µM [inhibitor, partial curve, poor fit]
C#CCOCCOCCOCCNc1nc(N2CCN(C(=O)[C@H](CCCCN)n3cc(CN)nn3)CC2)nc(N2CCN(C(=O)[C@H](CCCN=C(N)N)n3cc(C(N)[C@H](C)CC)nn3)CC2)n1 (stereo partly drawn)		inconclusive: 31.6 µM [inhibitor, partial curve, poor fit]
CCOC(=O)c1cc2oc(C)cc2n1CC(=O)OC1CCCCC1		inconclusive: 100 µM [inhibitor, single point]
COc1cccc(-c2nc(CS(=O)(=O)CC(=O)NCc3cccc(Cl)c3)c(C)o2)c1	inactive: -9.27%	
CC1=C(c2ccc(F)cc2)S(=O)(=O)N=C1N1CCC(C(=O)NCCc2cccc(C)c2)CC1		inconclusive: 89.1 µM [inhibitor, single point]
O=C(CN1C(=O)CCC1=O)Nc1nc(-c2ccccn2)cs1		inconclusive: 3.16 µM [inhibitor, full curve]

Compound	activity, negative = inhibition	Potency
CN1C2CCC1CC(NC(=O)c1cc(S(=O)(=O)N(C)C)c(Cl)cc1Cl)C2 (stereo not drawn)		inconclusive: 89.1 µM [inhibitor, single point]
O=C(O)CC1(c2ccc(F)cc2)C2CC3CC(C2)CC1C3 (stereo not drawn)		inconclusive: 1.78 µM [inhibitor, full curve, poor fit]
CCOC(=O)c1cc(=O)n2nc(-c3ccccc3F)nc2s1		inconclusive: 28.2 µM [inhibitor, partial curve, poor fit]
COc1ccc(-c2cnnn2-c2ccc(NC(=O)c3ccccc3OC)cc2)cc1		inconclusive: 79.4 µM [inhibitor, single point]
COc1ccc(C2=C(N3CCN(c4cccc(C)c4C)CC3)c3ccccc3C2=O)cc1		inconclusive: 3.55 µM [inhibitor, partial curve, poor fit]
Cc1cc(O)c(C=Nc2cccc(Cl)c2)c(=O)o1		inconclusive: 44.7 µM [inhibitor, full curve, poor fit]
CCCn1nc(C(=O)Nc2ccc(S(=O)(=O)Nc3ncccn3)cc2)c2ccccc2c1=O		inconclusive: 17.8 µM [inhibitor, full curve, poor fit]
C1=Cc2ccccc2/C1=C\c1ccc(/C=C2\C=Cc3ccccc32)cc1	inactive: -1.7%	
C=CCn1c2ccccc2c(=O)c2cc(C#CC[C@@H](C)O)ccc21		inconclusive: 20 µM [inhibitor, partial curve, poor fit]
CC(C)(C)c1ccc(C(=O)Nc2ccc(S(N)(=O)=O)cc2)cc1	inactive: 6.93%	
C=CCOC(=O)c1cc(-c2ccc(/C=C3\C(=O)NC(=O)C(C#N)=C3C)o2)ccc1Cl		inconclusive: 11.2 µM [inhibitor, full curve, poor fit]
COc1ccccc1-c1ccc(/C=C2/C=C(C)OC2=O)o1		inconclusive: 22.4 µM [inhibitor, full curve, poor fit]
O=C1c2oc3ccc(Cl)cc3c(=O)c2C(c2ccco2)N1CCN1CCOCC1 (stereo not drawn)		inconclusive: 8.91 µM [inhibitor, partial curve, poor fit]
COc1cc(/C=N/N=C2/C(=O)Nc3ccccc32)ccc1O	inactive: 24.8%	
CC1=NOC(=O)/C1=C\c1ccc(-c2ccc(Br)cc2C(=O)O)o1		inconclusive: 15.8 µM [inhibitor, full curve, poor fit]
O=[N+]([O-])c1cc(Cl)cc(/C=N/NC(=S)Nc2ccc(S(=O)(=O)N3CCOCC3)cc2)c1O		inconclusive: 15.8 µM [inhibitor, partial curve, poor fit]
Cc1cc(C)c2nc(C)cc(N/N=C/c3ccc(O)cc3)c2c1		inconclusive: 15.8 µM [inhibitor, partial curve, poor fit]
O=C(N=Nc1c(O)[nH]c2ccccc12)c1cc(NS(=O)(=O)c2cccs2)cc(NS(=O)(=O)c2cccs2)c1		inconclusive: 31.6 µM [inhibitor, partial curve, poor fit]
COc1cc(Br)cc(CN2CCN(C=O)CC2)c1O		inconclusive: 31.6 µM [inhibitor, full curve]
CCc1cc2ccc(C)cc2nc1SCC(=O)N1CCN(C(=O)c2ccco2)CC1		inconclusive: 15.8 µM [inhibitor, full curve, poor fit]
COc1ccc(C2(C(=O)O)CCCC2)cc1		inconclusive: 89.1 µM [inhibitor, single point]

A run of entries taken from the entries so far, for reference:
Compound	activity, negative = inhibition	Potency
O=[N+]([O-])c1cc(Cl)cc(/C=N/NC(=S)Nc2ccc(S(=O)(=O)N3CCOCC3)cc2)c1O		inconclusive: 15.8 µM [inhibitor, partial curve, poor fit]
Cc1cc(C)c2nc(C)cc(N/N=C/c3ccc(O)cc3)c2c1		inconclusive: 15.8 µM [inhibitor, partial curve, poor fit]
